Patent publication US20130309252A1
No constants are given. Whether binding was seen depends on the method and setting. Some results given as binding are weak or reduced against the parent protein; the word gives no strength.

Protein sequences, listed by entry. Tags and fused reporters are not part of them. Lines headed by an entry give the natural chain unless they say otherwise; changes in a name come on top.
UniProt O88792: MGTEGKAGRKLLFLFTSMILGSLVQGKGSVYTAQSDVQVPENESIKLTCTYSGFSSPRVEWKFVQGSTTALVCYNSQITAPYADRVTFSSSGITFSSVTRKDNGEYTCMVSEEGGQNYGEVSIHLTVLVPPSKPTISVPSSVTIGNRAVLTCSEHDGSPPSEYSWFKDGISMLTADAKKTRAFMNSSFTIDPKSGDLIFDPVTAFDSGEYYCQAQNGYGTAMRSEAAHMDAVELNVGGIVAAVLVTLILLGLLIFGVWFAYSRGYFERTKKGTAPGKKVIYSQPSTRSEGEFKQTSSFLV
UniProt Q9JI59: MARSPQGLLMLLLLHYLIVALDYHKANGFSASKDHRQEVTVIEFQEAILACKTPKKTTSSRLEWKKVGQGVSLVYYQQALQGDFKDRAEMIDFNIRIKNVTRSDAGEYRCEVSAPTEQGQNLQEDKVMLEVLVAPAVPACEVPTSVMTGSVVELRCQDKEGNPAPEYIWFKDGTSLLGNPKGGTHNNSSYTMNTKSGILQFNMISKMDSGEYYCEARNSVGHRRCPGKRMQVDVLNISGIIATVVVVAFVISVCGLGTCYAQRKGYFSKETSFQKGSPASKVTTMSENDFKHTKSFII

Legend:
[1] = target: GST-PDZI′ recombinant Grasp55 protein (murine); assay: HTRF competition by unlabelled JAM-C peptide, relative affinity
[2] = target: GST-PDZI′ recombinant Grasp55 protein (murine); assay: HTRF, biotinylated peptide and GST fusion

| Binder | binding [1] | binding [2] |
| --- | --- | --- |
| SQPSTRSEGEFKQTSSFLV (peptide, UniProt O88792 282-300, looked up, biotinylated (position not given)) [biotinylated C-terminal JAM-A peptide] | binds | binds |
| SKVTTMSENDFKHTKSFII (peptide, UniProt Q9JI59 280-298, looked up, biotinylated (position not given)) [biotinylated peptide corresponding to the last 19 amino-acids of JAM-B] | binds | binds |
